The chains behind the UniProt entries cited, without tags or fusion partners. Where a name states a change or a piece, a line headed by the entry shows the natural chain unless it says otherwise.
UniProt Q8I253: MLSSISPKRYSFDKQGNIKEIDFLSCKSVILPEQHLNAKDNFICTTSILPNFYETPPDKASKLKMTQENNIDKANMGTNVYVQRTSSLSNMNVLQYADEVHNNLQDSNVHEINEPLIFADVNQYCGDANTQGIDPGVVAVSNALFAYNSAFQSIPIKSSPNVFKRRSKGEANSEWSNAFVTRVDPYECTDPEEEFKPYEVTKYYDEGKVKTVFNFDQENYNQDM
UniProt A0A0Y9W4B5: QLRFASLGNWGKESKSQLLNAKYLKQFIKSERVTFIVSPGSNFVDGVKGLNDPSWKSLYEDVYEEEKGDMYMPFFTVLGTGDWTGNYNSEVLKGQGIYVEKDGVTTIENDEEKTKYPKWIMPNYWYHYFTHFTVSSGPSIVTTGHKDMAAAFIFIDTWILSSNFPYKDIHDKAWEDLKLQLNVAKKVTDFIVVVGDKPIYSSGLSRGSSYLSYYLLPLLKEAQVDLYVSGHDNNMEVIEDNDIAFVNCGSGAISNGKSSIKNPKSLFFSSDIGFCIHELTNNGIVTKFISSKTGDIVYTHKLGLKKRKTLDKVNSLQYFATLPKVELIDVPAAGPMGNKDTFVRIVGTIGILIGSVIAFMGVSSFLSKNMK
UniProt Q8I4W8: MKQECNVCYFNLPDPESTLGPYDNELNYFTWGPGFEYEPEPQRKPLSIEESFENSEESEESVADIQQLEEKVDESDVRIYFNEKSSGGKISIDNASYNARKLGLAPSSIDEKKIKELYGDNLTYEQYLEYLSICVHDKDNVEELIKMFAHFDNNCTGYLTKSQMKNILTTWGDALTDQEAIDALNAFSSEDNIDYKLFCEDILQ
UniProt Q8IDR3: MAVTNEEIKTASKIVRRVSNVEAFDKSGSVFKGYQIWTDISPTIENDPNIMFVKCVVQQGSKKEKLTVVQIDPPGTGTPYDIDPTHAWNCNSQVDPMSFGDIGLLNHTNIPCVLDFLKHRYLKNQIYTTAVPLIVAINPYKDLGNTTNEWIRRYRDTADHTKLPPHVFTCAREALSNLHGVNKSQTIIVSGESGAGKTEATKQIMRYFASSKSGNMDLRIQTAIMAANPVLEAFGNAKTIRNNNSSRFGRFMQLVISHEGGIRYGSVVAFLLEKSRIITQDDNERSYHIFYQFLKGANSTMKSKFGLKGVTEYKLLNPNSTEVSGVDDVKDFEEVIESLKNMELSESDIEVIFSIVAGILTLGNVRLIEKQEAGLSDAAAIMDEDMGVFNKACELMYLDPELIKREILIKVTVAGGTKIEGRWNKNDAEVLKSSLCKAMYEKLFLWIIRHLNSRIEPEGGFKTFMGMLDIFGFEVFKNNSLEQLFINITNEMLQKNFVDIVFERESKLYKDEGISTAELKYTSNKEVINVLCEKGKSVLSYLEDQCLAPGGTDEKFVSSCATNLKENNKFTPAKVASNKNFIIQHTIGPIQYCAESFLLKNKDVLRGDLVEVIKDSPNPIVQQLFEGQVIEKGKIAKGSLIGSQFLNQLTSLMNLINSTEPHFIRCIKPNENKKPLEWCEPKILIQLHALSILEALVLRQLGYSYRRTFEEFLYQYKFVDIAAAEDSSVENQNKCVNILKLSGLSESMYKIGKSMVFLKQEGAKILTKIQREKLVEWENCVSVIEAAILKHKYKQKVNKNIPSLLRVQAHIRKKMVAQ

In PMC5686188:

B1: P. falciparum glideosome-associated protein 40 (GAP40) (protein, UniProt Q8I3V1 1-456)
chain: MKFEKFNIPEWSDIERYFKDPELLTAEILFVALTLCNVFVMYRLFLDVIPYPIFVTWWQLAQGLLVAYVCGELGREFPKFAYFPKVEINENMLKVLFVPSIFYCLMLVLSNYLLYKTPCIASYPVLVSFTVVFHHLTRFIGCGEEYMPLRWKSIVFLLAAFIIGCFDSKTTGKGVIVWALLYALFSAIFRAGFMQKIMHLVDGKGNTLHNNQHLLGVLILPVLILLSGELSVFVHMPYDITSLHTWQMWGCLITVGTLPFIKNVISNRLVRRTGQGPWRFLEIISIILVFFIGMTYNAPSFKGYLAILCVIIGRSLGAFDVLLNASDYMHAEDERKRKNPRASYAKSRQGTQASKPFLSSADNEEDEESSFSSNDSKSYQGSQDYDDKESVNSSSQQYSVHKGTSHMDSSSNQTSHGVISADEGRGEHSRAATFKSKSKLSRNYSSKQHEMLDSQA
B2: P. falciparum glideosome-associated protein 45 (GAP45), Q8I5I8 1-204 (protein)
chain: MGNKCSRSKVKEPKRKDIDELAERENLKKQSEEIIEEKPEEVVEQVEETHEEPLEQEQELDEQKIEEEEEEPEQVPKEEIDYATQENKSFEEKHLEDLERSNSDIYSESQKFDNASDKLETGTQLTLSTEATGAVQQITKLSEPAHEESIYFTYRSVTPCDMNKLDETAKVFSRRCGCDLGERHDENACKICRKIDLSDTPLLS

Assays:
[1] = biological target: PbPhIL1-GFP (P. berghei PhIL1 with C-terminal GFP) (P. berghei); assay: affinity purification with mass spectrometry; GFP-Trap beads on cell lysate of P. berghei PhIL1-GFP parasites; bound proteins digested with trypsin, peptides analysed by mass spectrometry; control: lysate of a P. berghei line ubiquitously expressing GFP
[2] = biological target: PfPhIL1-GFP (P. falciparum Photosensitized INA-Labelled protein 1 fused to GFP) (P. falciparum) (UniProt Q8I253); assay: affinity purification with mass spectrometry; GFP-Trap_A beads (Chromotek) on mature schizont/merozoite lysate of P. falciparum PhIL1-GFP parasites; eluate digested with trypsin, peptides analysed by mass spectrometry; control: lysate of 3D7
[3] = biological target: PfPhIL1-GFP (P. falciparum Photosensitized INA-Labelled protein 1 fused to GFP) (P. falciparum), Q8I253; assay: as above; conditions: remark: other sources report otherwise

Molecule | binding [2] | also measured
P. berghei glideosome-associated protein 50 (GAP50) (from UniProt A0A0Y9W4B5) | – | binding [1]: binds
P. falciparum myosin tail interacting protein (MTIP) (from UniProt Q8I4W8 1-204) | no binding | –
P. falciparum class XIV myosin A (MyoA) (from UniProt Q8IDR3 1-818) | no binding | –
B1 | no binding | –
B2 | – | binding [3]: no binding

No constants are given. Whether binding was seen depends on the method and setting. In cells and extracts the contact can be indirect. These calls come from enrichment with a bait or labelling near it, and not all partners need be listed. For some assays here: A no says only that the protein was not detected with the bait.
